{"source": "PubChem BioAssay AID248", "about": "(DTP/NCI, 2004)", "test_system": "L1210 leukemia ip in BDF1 mice, survival T/C", "assay": "NCI In Vivo Anticancer Drug Screen. Data for tumor model L1210 Leukemia (intraperitoneal) in B6D2F1 (BDF1) mice", "details": "T/C endpoint: mean survival time, higher T/C = longer survival", "key": {"[1]": {"details": "dose: 400.0 mg/kg/injection, schedule: Q01DX009 (ip), vehicle: Klucel (hydroxypropylcellulose) (HPC)"}, "[2]": {"details": "dose: 200.0 mg/kg/injection, schedule: Q01DX009 (ip), vehicle: Klucel (hydroxypropylcellulose) (HPC)"}}, "note": "The list does not hold the whole screen: it gathers tests that were run many times, whatever their T/C, doses with no T/C, and many T/C values between a quarter and a half above the control. Other doses and runs of a compound stand elsewhere. T/C gives the treated animals as a percentage of the vehicle group. Some entries give survivors of the animals treated and no T/C: the source files T/C as zero there, which appears to mark a toxic dose or a test without result, not a measured value. Some doses without a T/C left all or most animals alive at the check, yet need not have been tolerated: survival well below the control is almost never listed, so the zero probably covers shortened survival too. Counts of survivors are from the toxicity check (mostly the fifth day) where no day follows; animals may have died later. Schedule codes are those of the source, taken here to give the interval after Q, in days (D) or hours (H), and the number of doses after X.", "data": [{"smiles": "O=Cc1ccccc1OCCCC[P+](c1ccccc1)(c1ccccc1)c1ccccc1", "values": [{"measurement": "survivor count", "setting": "dose: 40.0 mg/kg/injection, schedule: Q01DX001 (ip), vehicle: saline", "value": "0 of 4"}, {"measurement": "survivor count", "setting": "dose: 80.0 mg/kg/injection, schedule: Q01DX001 (ip), vehicle: saline", "value": "0 of 4"}, {"measurement": "survivor count", "setting": "dose: 100.0 mg/kg/injection, schedule: Q01DX001 (ip), vehicle: saline", "value": "0 of 6"}, {"measurement": "survivor count", "setting": "dose: 200.0 mg/kg/injection, schedule: Q01DX001 (ip), vehicle: saline", "value": "0 of 6"}, {"measurement": "survivor count", "setting": "dose: 400.0 mg/kg/injection, schedule: Q01DX001 (ip), vehicle: saline", "value": "0 of 6"}]}, {"smiles": "O=C(Nc1ccccc1C(F)(F)F)c1ccc(Cl)c(Cl)c1", "values": [{"measurement": "survivor count", "setting": "[1]", "value": "2 of 6"}]}, {"smiles": "COc1ccc(C(=O)/C=C/c2ccccc2Cl)cc1", "values": [{"measurement": "survivor count", "setting": "dose: 400.0 mg/kg/injection, schedule: Q04DX003 (ip), vehicle: saline with Tween-80", "value": "0 of 3"}]}, {"smiles": "O=C1C(Br)C(Br)C(=O)N1c1ccccc1F", "note": "(stereo not given)", "values": [{"measurement": "survivor count", "setting": "dose: 50.0 mg/kg/injection, schedule: Q01DX009 (ip), vehicle: other", "value": "2 of 6"}, {"measurement": "survivor count", "setting": "dose: 100.0 mg/kg/injection, schedule: Q01DX009 (ip), vehicle: other", "value": "0 of 6"}, {"measurement": "survivor count", "setting": "dose: 200.0 mg/kg/injection, schedule: Q01DX009 (ip), vehicle: other", "value": "0 of 6"}, {"measurement": "survivor count", "setting": "dose: 400.0 mg/kg/injection, schedule: Q01DX009 (ip), vehicle: other", "value": "0 of 6"}]}, {"smiles": "CCCCOC(=O)Nc1cccc(O)c1", "values": [{"measurement": "survivor count", "setting": "dose: 400.0 mg/kg/injection, schedule: Q01DX009 (ip), vehicle: saline with Tween-80", "value": "5 of 6"}]}, {"smiles": "CC(C)(c1ccccc1)C(C)(C)c1ccccc1", "values": [{"measurement": "survivor count", "setting": "[2]", "value": "6 of 6"}]}, {"smiles": "COc1cccc(/C=N/NC(=O)c2ccncc2)c1OC", "values": [{"measurement": "survivor count", "setting": "[2]", "value": "1 of 6"}, {"measurement": "survivor count", "setting": "[1]", "value": "0 of 6"}]}]}
